Reference: paper PMC10100820
Where two headings read alike, the source gives them in different places. No constants are given. Whether binding was seen depends on the method and setting. Binding seen in cells or lysates may run through a third protein. Some entries that bind do so weakly or less than the wild type. For some assays here: Sequences can lack the tags named with a protein.

The chains behind the UniProt entries cited, without tags or fusion partners.
UniProt Q7Z434: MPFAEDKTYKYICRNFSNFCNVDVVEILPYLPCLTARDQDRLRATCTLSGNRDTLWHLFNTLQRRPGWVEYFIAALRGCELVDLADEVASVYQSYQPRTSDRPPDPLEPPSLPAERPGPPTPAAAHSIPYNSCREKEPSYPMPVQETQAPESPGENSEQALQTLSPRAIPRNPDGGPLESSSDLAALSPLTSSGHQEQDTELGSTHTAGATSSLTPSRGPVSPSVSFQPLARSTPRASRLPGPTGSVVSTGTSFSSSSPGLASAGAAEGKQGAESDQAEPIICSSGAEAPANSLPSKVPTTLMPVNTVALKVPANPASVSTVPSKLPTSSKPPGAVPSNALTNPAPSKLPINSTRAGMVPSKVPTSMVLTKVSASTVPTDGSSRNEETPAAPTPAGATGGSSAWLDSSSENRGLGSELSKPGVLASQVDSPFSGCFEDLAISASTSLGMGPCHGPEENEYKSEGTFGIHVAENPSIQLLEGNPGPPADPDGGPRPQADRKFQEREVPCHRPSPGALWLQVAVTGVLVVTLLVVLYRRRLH

Columns and labels:
[1] = target: Myc-tagged mitochondrial antiviral signaling protein (MAVS) (UniProt Q7Z434); assay: co-IP
[2] = target: Myc-tagged mitochondrial antiviral signaling protein (MAVS) (UniProt Q7Z434); assay: co-IP; remark: listed apart in the source

Flag-tagged MDA5-S828A (phospho-null mutant) (from UniProt Q9BYX4 1-1025)
binding [1]: binds

B1: Flag-tagged melanoma differentiation-associated gene 5 (MDA5), wild type (protein, UniProt Q9BYX4 1-1025)
chain: MSNGYSTDENFRYLISCFRARVKMYIQVEPVLDYLTFLPAEVKEQIQRTVATSGNMQAVELLLSTLEKGVWHLGWTREFVEALRRTGSPLAARYMNPELTDLPSPSFENAHDEYLQLLNLLQPTLVDKLLVRDVLDKCMEEELLTIEDRNRIAAAENNGNESGVRELLKRIVQKENWFSAFLNVLRQTGNNELVQELTGSDCSESNAEIENLSQVDGPQVEEQLLSTTVQPNLEKEVWGMENNSSESSFADSSVVSESDTSLAEGSVSCLDESLGHNSNMGSDSGTMGSDSDEENVAARASPEPELQLRPYQMEVAQPALEGKNIIICLPTGSGKTRVAVYIAKDHLDKKKKASEPGKVIVLVNKVLLVEQLFRKEFQPFLKKWYRVIGLSGDTQLKISFPEVVKSCDIIISTAQILENSLLNLENGEDAGVQLSDFSLIIIDECHHTNKEAVYNNIMRHYLMQKLKNNRLKKENKPVIPLPQILGLTASPGVGGATKQAKAEEHILKLCANLDAFTIKTVKENLDQLKNQIQEPCKKFAIADATREDPFKEKLLEIMTRIQTYCQMSPMSDFGTQPYEQWAIQMEKKAAKEGNRKERVCAEHLRKYNEALQINDTIRMIDAYTHLETFYNEEKDKKFAVIEDDSDEGGDDEYCDGDEDEDDLKKPLKLDETDRFLMTLFFENNKMLKRLAENPEYENEKLTKLRNTIMEQYTRTEESARGIIFTKTRQSAYALSQWITENEKFAEVGVKAHHLIGAGHSSEFKPMTQNEQKEVISKFRTGKINLLIATTVAEEGLDIKECNIVIRYGLVTNEIAMVQARGRARADESTYVLVAHSGSGVIEHETVNDFREKMMYKAIHCVQNMKPEEYAHKILELQMQSIMEKKMKTKRNIAKHYKNNPSLITFLCKNCSVLACSGEDIHVIEKMHHVNMTPEFKELYIVRENKALQKKCADYQINGEIICKCGQAWGTMMVHKGLDLPCLKIRNFVVVFKNNSTKKQYKKWVELPITFPNLDYSECCLFSDED
binding [2]: binds
